In assay [1] the target is mu opioid receptor (MOR), human (human (endogenous in spinal nerve)) (UniProt P35372). The experiment in a line: co-IP.
The target in assay [2] is Programmed cell death protein-1 (PD-1), human (human (endogenous in spinal nerve)) (UniProt Q15116). The experiment in a line: co-IP.

Sequences of proteins named here, by UniProt entry; tags and fusion partners are left off. Residues count along the entry.
UniProt P35372: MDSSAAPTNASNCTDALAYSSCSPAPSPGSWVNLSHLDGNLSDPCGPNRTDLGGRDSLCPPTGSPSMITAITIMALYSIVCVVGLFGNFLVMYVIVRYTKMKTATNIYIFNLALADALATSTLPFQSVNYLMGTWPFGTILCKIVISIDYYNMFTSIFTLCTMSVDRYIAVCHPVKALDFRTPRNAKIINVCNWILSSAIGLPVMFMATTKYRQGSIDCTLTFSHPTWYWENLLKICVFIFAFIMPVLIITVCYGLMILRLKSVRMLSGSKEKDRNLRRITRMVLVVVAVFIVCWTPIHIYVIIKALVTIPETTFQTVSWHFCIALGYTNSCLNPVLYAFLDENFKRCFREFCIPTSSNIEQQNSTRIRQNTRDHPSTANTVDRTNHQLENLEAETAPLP
UniProt Q15116, residues 25-288: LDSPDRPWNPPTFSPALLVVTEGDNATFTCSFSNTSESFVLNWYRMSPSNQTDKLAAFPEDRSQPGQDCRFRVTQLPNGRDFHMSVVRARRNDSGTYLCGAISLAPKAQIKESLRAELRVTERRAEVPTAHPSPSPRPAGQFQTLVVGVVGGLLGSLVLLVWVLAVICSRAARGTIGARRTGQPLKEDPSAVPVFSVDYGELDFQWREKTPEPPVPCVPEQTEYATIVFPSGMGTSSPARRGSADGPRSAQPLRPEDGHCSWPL

These are yes or no findings as the source states them, for the method shown. Binding seen in cells or lysates may run through a third protein. Some results given as binding are weak or reduced against the parent protein; the word gives no strength.

With “Programmed cell death protein-1 (PD-1), human (from UniProt Q15116 25-288) (receptor)”, the binding result in assay [1] is listed as “binds”.

For “mu opioid receptor (MOR), human (from UniProt P35372 1-400)”, in assay [2], the binding result was “binds”.

The values above are taken from doi:10.1101/580506.
